The other results are listed elsewhere or left out. These are further read-outs of the screen, such as a control signal, another cell line or another target. No call is given for them. The list favours compounds with an active or inconclusive main result.

This assay can be described thus: hepatocyte lipid droplet accumulation inhibitors, confirmation, imaging, AML12 mouse hepatocytes, single concentration, high-content (AID 463183).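 Note: cells counted after overnight compound exposure.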 As to conditions: BODIPY lipid droplet imaging, measured here: cell count, cytotoxicity, at 5.2 µM, droplets induced with 100 µM oleic acid.
Take `COc1cc2ncnc(NCc3ccc(Cl)cc3)c2cc1OC`: the cell count was determined as 920 cells. The figure for `Cc1cc(C)cc(NC(=O)N2CCC(C(=O)c3ccc(F)cc3)CC2)c1` is 1520 cells.

Turning to `O=C(Nc1ccc(-c2csc(Nc3ccc(Cl)cc3)n2)cc1)c1cccc(C(F)(F)F)c1`, the cell count worked out at 1560 cells.

`CC(C)Oc1ccc(C(=O)OC(C)C(=O)NC2CCCCC2C)cc1` (configuration not stated) came in with a cell count of 1560 cells. Compound `CCCCN(C(=O)CCC(=O)Nc1cc(C)on1)C(C(=O)NC1CCCC1)c1ccc(OCC)cc1` (configuration not stated) gave a cell count of 1620 cells. For `CCN(CC)C(=O)CC(c1ccc(OC)cc1)c1c(OC)cc(OC)c2ccc(=O)oc12` (configuration not stated), the cell count was determined as 1590 cells. The figure for `Cc1ccc(NC(=O)CN(C)S(=O)(=O)c2cccs2)c(Br)c1` is 1540 cells.

Consider `COc1ccccc1Nc1nnc(SCC(=O)Nc2nc(-c3ccc(F)cc3)cs2)s1`, for which the cell count was determined as 1570 cells. As for `O=C(Nc1nc(-c2ccc(-c3ccccc3)cc2)cs1)C1CCCO1` (configuration not stated), the cell count came to 1640 cells. The figure for `Cc1cc(C(=O)CN2C(=O)c3ccccc3S2(=O)=O)c(C)n1-c1ccccc1` is 1580 cells; for `COc1ccc(CCNC(=O)c2ccc(CNc3nc(=S)[nH]c4ccccc34)cc2)cc1OC` it is 1630 cells; for `CCCCn1c(N)c(-c2nc3ccccc3s2)c2c([N+](=O)[O-])nn(CC)c(=O)c21` it is 1690 cells. The figure for `CC(C)C(C)(C#N)NC(=O)CSc1nc2scc(-c3ccc(F)cc3)c2c(=O)n1Cc1ccccc1` (configuration not stated) is 1620 cells; for `Cc1cc(C)n(-c2nc3c(c(=O)[nH]c(=O)n3C)n2CC(O)COc2ccc(Cl)cc2Cl)n1` (configuration not stated) it is 1590 cells; for `CCOC(=O)c1c(C)[nH]c(C)c1S(=O)(=O)N1CCN(c2ccc([N+](=O)[O-])cc2)CC1` it is 1640 cells. The figure for `c1ccc2c(c1)CCCC2C1=NCCN1` (configuration not stated) is 1620 cells; for `COc1ccc(C)cc1S(=O)(=O)N(CC(=O)Nc1cc([N+](=O)[O-])ccc1C)c1ccc(C)c(C)c1` it is 1540 cells.

For the compound `CCC1(c2ccccc2)NC(=O)N(CC(=O)N(C)Cc2c(F)cccc2Cl)C1=O` (configuration not stated), the cell count is 1670 cells. The figure for `CCCCCc1cc(=O)oc2c(C(CCN3CCCC(C)C3)c3ccc(N(C)C)cc3)c(OC)cc(OC)c12` (configuration not stated) is 1340 cells; for `COc1ccc(C(=O)CSc2nnc(CC(=O)Nc3ccccc3OC)n2C)cc1` it is 1630 cells; for `Cc1ccccc1N1CCN(C(=S)c2ccc(-c3ccc([N+](=O)[O-])cc3)o2)CC1` it is 1600 cells. Consider `CC1=C(C(=O)OCC2CCCO2)C(c2ccc(Cl)c(Cl)c2)NC(=O)N1` (configuration not stated), for which the cell count turned out to be 1580 cells.

For the origin of these results see PubChem BioAssay AID463183 (Sanford-Burnham Center for Chemical Genomics, 2010).
